# Structures can show the parent of a compound that is named as a salt. Structures were worked out from names or drawings and are uncertain.
# Sequences of proteins named here, by UniProt entry; tags and fusion partners are left off. Residues count along the entry.
# UniProt O60674, 808-1132 limits assumed: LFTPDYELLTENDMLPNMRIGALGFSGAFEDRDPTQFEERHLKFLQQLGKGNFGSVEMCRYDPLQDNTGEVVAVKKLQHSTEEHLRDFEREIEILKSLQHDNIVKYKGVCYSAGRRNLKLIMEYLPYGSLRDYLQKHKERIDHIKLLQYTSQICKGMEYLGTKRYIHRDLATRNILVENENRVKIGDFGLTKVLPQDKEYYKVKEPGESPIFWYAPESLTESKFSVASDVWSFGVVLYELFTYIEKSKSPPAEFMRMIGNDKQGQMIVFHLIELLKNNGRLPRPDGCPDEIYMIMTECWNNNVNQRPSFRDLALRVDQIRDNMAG
# Target: recombinant JAK2 (Homo sapiens, UniProt O60674)
# Experiment: IC50 value determinations for Jak2 kinase, luminescence-based kinase assay (Kinase-Glo)
# Format: biochemical
# Details: read-out: JAK2 (IC50); Table 8, SAR of the P4 region
row,IC50 [nM],SMILES
1,4,Cc1cnc(Nc2ccc(N3CCN(C)CC3)cc2)nc1Nc1ccc(Cl)c2[nH]ccc12
2,8,Cc1cnc(Nc2ccc(N3CCN(C)CC3)cc2)nc1Nc1cccc(C2CCN(CCO)CC2)c1 [2-[4-(3-{5-Methyl-2-[4-(4-methyl-piperazin-1-yl)-phenylamino]-pyrimidin-4-ylamino}-phenyl)-piperidin-1-yl]-ethanol]
3,14,"Cc1cnc(Nc2ccc(N3CCN(C)CC3)cc2)nc1Nc1cccc2c1OCO2 [N4-Benzo[1,3]dioxol-4-yl-5-methyl-N2-[4-(4-methyl-piperazin-1-yl)-phenyl]-pyrimidine-2,4-diamine]"
4,28,"Cc1cnc(Nc2ccc(OCCN3CCCC3)cc2)nc1Nc1ccc2sccc2c1 [N4-Benzo[b]thiophen-5-yl-5-methyl-N2-[4-(2-pyrrolidin-1-yl-ethoxy)-phenyl]-pyrimidine-2,4-diamine]"

# Same assay, conditions: read-out: JAK2 (IC50); Table 8, SAR of the P4 region; tested form: HCl
row,IC50 [nM],SMILES
1,5,"Cc1cnc(Nc2ccc(N3CCN(C)CC3)cc2)nc1Nc1ccc(C)c2[nH]ccc12 [5-methyl-N4-(7-methyl-1H-indol-4-yl)-N2-(4-(4-methylpiperazin-1-yl)phenyl)pyrimidine-2,4-diamine Hydrochloride]"
2,20,"Cc1cnc(Nc2ccc(OCCN3CCCC3)cc2)nc1Nc1cccc2ccccc12 [N2-(4-(2-(pyrrolidin-1-yl)ethoxy)phenyl)-5-methyl-N4-(naphthalen-1-yl)pyrimidine-2,4-diamine Hydrochloride]"
3,9,"Cc1cnc(Nc2ccc(N3CCN(C)CC3)cc2)nc1Nc1cccc2[nH]ccc12 [N4-(1H-indol-4-yl)-5-methyl-N2-(4-(4-methylpiperazin-1-yl)phenyl)pyrimidine-2,4-diamine Hydrochloride]"

# Same assay, conditions: read-out: JAK2 (IC50); Table 9, SAR of the P2/P1 region
row,SMILES,IC50 [nM]
1,CC(=O)N1CCN(c2ccc(Nc3ncc(C)c(Nc4cccc(S(=O)(=O)NC(C)(C)C)c4)n3)cc2C(F)(F)F)CC1 [3-[(2-{[4-(4-acetylpiperazin-1-yl)-3-(trifluoromethyl)phenyl]amino}-5-methylpyrimidin-4-yl)amino]-N-tert-butylbenzenesulfonamide],36
2,Cc1cnc(Nc2ccc(N3CCOCC3)cc2)nc1Nc1cccc(S(=O)(=O)NC(C)(C)C)c1 [N-tert-Butyl-3-[5-methyl-2-(4-morpholin-4-yl-phenylamino)-pyrimidin-4-ylamino]-benzenesulfonamide],12
3,Cc1cnc(Nc2ccc(Cn3cccn3)cc2)nc1Nc1cccc(S(=O)(=O)NC(C)(C)C)c1 [N-tert-Butyl-3-[5-methyl-2-(4-pyrazol-1-ylmethyl-phenylamino)-pyrimidin-4-ylamino]-benzenesulfonamide],18
4,Cc1cnc(Nc2ccc(N3CCNCC3)nc2)nc1Nc1cccc(S(=O)(=O)NC(C)(C)C)c1 [N-tert-Butyl-3-[5-methyl-2-(6-piperazin-1-yl-pyridin-3-ylamino)-pyrimidin-4-ylamino]-benzenesulfonamide],10
5,Cc1cnc(Nc2ccc(Cn3ccnc3C)cc2)nc1Nc1cccc(S(=O)(=O)NC(C)(C)C)c1 [N-tert-Butyl-3-{5-methyl-2-[4-(2-methyl-imidazol-1-ylmethyl)-phenylamino]-pyrimidin-4-ylamino}-benzenesulfonamide],22

# The remaining lines, values ahead:
row,IC50 [nM],SMILES
1,29,Cc1cnc(Nc2ccc(CN3CCN(C)CC3)cc2)nc1Nc1cccc(S(=O)(=O)NC(C)(C)C)c1
2,7,Cc1cnc(Nc2ccc(OC3CCNCC3)cc2)nc1Nc1cccc(S(=O)(=O)NC(C)(C)C)c1 [N-tert-Butyl-3-(5-methyl-2-[4-(piperidin-4-yloxy)-phenylamino]-pyrimidin-4-ylamino}-benzenesulfonamide]
3,13,Cc1cnc(Nc2ccc(CN3CCOCC3)cc2)nc1Nc1cccc(S(=O)(=O)NC(C)(C)C)c1 [N-tert-Butyl-3-[5-methyl-2-(4-morpholin-4-ylmethyl-phenylamino)-pyrimidin-4-ylamino]-benzenesulfonamide]

# Same assay, conditions: read-out: JAK2 (IC50); Table 9, SAR of the P2/P1 region; tested form: HCl
row,IC50 [nM],SMILES
1,7,Cc1cnc(Nc2ccc(N3CCN(CCO)CC3)cc2)nc1Nc1cccc(S(=O)(=O)NC(C)(C)C)c1 [N-tert-Butyl-3-(2-{4-[4-(2-hydroxy-ethyl)-piperazin-1-yl]-phenylamino)-[5-methyl-pyrimidin-4-ylamino]-benzenesulfonamide Hydrochloride]
2,7,Cc1cnc(Nc2cccc(CN3CCOCC3)c2)nc1Nc1cccc(S(=O)(=O)NC(C)(C)C)c1 [N-tert-Butyl-3-(5-methyl-2-(3-morpholin-4-ylmethyl-phenylamino)-pyrimidin-4-ylamino]-benzenesulfonamide]
3,8,Cc1cnc(Nc2ccc(N3CCNCC3)cc2)nc1Nc1cccc(S(=O)(=O)NC(C)(C)C)c1 [N-tert-Butyl-3-[5-methyl-2-(4-piperazin-1-yl-phenylamino)-pyrimidin-4-ylamino]-benzenesulfonamide Hydrochloride]

# From patent US8604042B2, “Bi-aryl meta-pyrimidine inhibitors of kinases” (TargeGen, Inc., priority 2005, dated 2013)
